# Source: PubChem BioAssay (EPA / NIEHS)
# Chains of the proteins cited; added tags and fusions are not shown. Lines headed by an entry give the natural chain unless they say otherwise; changes in a name come on top.
# UniProt Q96EB6: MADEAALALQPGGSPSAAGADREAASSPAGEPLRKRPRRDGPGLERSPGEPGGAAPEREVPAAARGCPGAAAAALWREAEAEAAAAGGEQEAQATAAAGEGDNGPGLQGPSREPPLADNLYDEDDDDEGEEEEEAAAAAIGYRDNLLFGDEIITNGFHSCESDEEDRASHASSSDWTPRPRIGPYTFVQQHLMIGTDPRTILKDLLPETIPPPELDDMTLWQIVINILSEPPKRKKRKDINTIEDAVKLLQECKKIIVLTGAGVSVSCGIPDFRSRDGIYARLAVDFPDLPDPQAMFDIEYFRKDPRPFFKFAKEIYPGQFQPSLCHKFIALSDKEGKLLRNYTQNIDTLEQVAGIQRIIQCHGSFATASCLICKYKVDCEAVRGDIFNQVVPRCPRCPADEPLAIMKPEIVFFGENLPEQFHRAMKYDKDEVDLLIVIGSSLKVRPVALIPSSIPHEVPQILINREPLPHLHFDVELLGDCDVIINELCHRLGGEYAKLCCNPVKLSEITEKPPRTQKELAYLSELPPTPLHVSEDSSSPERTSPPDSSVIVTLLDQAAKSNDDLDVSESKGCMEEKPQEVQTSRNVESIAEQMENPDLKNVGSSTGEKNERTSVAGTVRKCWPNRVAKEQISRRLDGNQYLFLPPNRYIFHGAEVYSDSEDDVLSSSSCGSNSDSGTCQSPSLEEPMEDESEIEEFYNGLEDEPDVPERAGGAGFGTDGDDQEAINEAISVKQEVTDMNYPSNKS
# UniProt P19490: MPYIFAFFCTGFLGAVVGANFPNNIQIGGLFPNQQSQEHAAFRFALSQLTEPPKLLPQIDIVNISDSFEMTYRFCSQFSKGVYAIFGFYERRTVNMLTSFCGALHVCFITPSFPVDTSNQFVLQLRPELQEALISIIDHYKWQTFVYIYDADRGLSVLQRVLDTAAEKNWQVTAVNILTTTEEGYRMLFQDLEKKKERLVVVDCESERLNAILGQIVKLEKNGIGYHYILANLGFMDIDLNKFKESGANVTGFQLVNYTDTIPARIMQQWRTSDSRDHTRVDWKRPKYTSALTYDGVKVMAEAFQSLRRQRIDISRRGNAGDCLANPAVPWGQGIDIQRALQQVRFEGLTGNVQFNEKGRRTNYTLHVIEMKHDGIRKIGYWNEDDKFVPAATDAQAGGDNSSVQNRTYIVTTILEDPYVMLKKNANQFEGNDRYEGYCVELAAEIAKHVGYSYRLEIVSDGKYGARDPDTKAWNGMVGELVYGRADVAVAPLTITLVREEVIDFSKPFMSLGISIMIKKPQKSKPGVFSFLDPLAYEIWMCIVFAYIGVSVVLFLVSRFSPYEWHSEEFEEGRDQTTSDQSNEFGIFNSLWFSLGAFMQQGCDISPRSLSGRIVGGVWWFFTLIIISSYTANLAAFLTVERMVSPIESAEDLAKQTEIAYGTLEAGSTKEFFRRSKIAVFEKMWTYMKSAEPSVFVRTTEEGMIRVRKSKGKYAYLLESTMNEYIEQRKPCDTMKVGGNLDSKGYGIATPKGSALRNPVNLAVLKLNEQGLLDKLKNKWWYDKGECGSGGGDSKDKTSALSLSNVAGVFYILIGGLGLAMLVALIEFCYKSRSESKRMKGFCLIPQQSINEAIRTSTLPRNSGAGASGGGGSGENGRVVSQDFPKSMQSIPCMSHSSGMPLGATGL
# UniProt P10275: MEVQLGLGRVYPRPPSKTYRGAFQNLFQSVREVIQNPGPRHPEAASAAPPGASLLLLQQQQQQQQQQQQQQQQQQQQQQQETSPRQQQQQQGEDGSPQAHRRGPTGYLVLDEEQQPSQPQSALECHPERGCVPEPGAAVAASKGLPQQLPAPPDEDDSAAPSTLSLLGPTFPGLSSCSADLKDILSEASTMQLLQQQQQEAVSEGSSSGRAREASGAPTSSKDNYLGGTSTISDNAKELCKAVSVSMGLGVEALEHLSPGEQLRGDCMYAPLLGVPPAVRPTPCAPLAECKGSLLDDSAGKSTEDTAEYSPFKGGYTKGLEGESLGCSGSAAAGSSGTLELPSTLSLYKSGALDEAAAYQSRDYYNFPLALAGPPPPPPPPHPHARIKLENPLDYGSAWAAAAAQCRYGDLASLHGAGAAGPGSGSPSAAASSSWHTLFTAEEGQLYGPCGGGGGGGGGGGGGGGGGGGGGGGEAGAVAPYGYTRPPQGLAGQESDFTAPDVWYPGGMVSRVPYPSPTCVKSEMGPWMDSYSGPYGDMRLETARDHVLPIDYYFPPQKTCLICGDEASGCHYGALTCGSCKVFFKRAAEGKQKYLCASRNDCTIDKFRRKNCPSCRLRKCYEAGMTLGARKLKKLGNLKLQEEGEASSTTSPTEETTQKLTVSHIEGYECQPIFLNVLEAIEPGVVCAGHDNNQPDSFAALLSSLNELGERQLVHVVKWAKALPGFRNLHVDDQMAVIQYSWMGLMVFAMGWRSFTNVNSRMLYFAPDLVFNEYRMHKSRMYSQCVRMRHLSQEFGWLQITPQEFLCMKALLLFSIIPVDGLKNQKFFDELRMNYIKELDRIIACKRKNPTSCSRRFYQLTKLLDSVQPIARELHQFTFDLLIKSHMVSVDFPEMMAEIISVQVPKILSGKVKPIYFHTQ
# UniProt P20813: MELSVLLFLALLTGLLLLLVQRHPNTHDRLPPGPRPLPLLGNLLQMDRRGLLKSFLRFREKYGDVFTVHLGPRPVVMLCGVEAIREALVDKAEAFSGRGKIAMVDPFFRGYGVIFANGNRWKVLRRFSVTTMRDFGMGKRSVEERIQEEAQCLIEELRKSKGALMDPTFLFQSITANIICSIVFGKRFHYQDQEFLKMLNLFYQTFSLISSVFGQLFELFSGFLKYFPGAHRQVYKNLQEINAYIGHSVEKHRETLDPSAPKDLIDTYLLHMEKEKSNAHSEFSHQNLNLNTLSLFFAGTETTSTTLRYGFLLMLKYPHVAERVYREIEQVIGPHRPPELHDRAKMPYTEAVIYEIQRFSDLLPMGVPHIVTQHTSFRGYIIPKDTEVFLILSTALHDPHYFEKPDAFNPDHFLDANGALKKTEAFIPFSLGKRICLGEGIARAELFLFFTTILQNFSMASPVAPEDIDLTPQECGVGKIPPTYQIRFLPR
# UniProt P08913, whole entry, looked up: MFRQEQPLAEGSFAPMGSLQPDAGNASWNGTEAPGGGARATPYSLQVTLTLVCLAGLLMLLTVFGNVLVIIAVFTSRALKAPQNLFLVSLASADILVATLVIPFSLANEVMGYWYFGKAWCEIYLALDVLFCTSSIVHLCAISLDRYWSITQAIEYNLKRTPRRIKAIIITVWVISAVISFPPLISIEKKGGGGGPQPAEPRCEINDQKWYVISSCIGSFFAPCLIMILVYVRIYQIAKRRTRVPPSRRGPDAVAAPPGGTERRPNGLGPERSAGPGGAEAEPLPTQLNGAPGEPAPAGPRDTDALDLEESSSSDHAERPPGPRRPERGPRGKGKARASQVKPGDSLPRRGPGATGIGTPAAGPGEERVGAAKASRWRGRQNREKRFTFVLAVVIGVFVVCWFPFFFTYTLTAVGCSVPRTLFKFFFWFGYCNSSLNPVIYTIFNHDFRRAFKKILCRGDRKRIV
# Inconclusive means that the source gave no clear call. Such entries were picked first, then a sample of the others. For some of these results: Potencies of inconclusive entries are doubtful fits and often do not repeat. Activity calls are given as the source filed them. Rule for the calls: active = hit-call score of the fitted dose curve at least 0.9, where 1 is the maximum; inconclusive = response in the unintended direction; inactive = score below 0.9.
# How the values were obtained:
# [1] = target: human Phosphodiesterase 5 (PDE5), PDE5A (gene 8654) (UniProt O76074); test: NVS_ENZ_hPDE5: NovaScreen (NVS) Enzymatic Assay for human Phosphodiesterase 5 (PDE5) (AID 2283194)
# Summary of the method: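 Recombinant human PDE5 with specific substrate, read 1 h after dosing by fluorescence with electrophoretic mobility-shift separation of substrate and product. Initial single-concentration duplicate screen at 25 uM, actives followed in concentration series; loss of activity versus DMSO.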
# [2] = target: human Sirtuin 1 (SIRT1), SIRT1 (gene 23411) (UniProt Q96EB6); test: NVS_ENZ_hSIRT1: NovaScreen (NVS) Enzymatic Assay for human Sirtuin 1 (SIRT1) (AID 2283219)
# Summary of the method: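 Cell-free recombinant SIRT1 with a fluorescent substrate; substrate and product separated by electrophoretic mobility shift and read by fluorescence intensity, 1 h after dosing. Primary screen at 25 uM in duplicate; hits re-run in concentration-response up to 50 uM, relative to DMSO.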
# [3] = target: rat Glutamate, AMPA Site (AMPA), Gria1 (gene 50592) (UniProt P19490); test: NVS_LGIC_rAMPA: NovaScreen (NVS) Ligand-Gated Ion Channel Assay for rat Glutamate, AMPA Site (AMPA) (AID 2283324)
# Summary of the method: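 Rat forebrain membranes; radioligand binding read 1 h after dosing by filtration and scintillation counting. Duplicate single-point screen at 25 uM, then concentration-response to 50 uM for threshold hits (e.g. 30% inhibition); loss of signal vs DMSO.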
# [4] = CCTE_Simmons_CellTiterGLO_HEK293T: Viability Assessment in CCTE's Assays for Thyroperoxidase (TPO) Inhibition, Simmons Lab (AID 2283665);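 for AC50: cells exposed to compound for 24 h before readout; actives reduce ATP signal below DMSO vehicle meaning cytotoxicity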
# Summary of the method: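 HEK293T, 10 000 cells/well, DMEM + 1% FBS; 8-pt titration 5 nM–87.5 uM [final], 0.5% DMSO; 24 hr, 37C, 5% CO2; CellTiter-Glo luminescence; n=3 biological replicates.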
# [5] = STM_H9_NormalizedViability: Cytotoxicity Assessment at 120 hours in the Stemina devTOX quickPredict H9 human embryonic stem cell (hESC)-based Assay (AID 2283784)
# Summary of the method: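 Pluripotent H9 cells dosed, fresh medium plus compound q24h → cell layer read by CellTiter-Fluor → RFU blank-corrected, normalized to DMSO 0.1% mean. Loss-of-signal fit, DMSO as baseline.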
# [6] = TOX21_TRB_BLA_Agonist_Followup_viability: Viability Assessment in the Tox21 Thyroid Hormone Receptor beta Agonism Beta-lactamase (BLA) Follow-Up Assay (AID 2283956)
# Summary of the method: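 TRb-bla HEK293T cells (GAL4-DBD/human TRb LBD) in 2% charcoal-stripped FBS medium were exposed 18 h at 37C to 11 concentrations in triplicate. CellTiter-Glo ATP luminescence was read after 30 min at room temperature, with bidirectional fitting against DMSO.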
# [7] = VALA_TUBHUV_Antagonist_CellCount: Viability Assessment in the VALA Sciences human Umbilical Vein Endothelial Tubule Formation (TUBHUV) Antagonism Assay (AID 2284310)
# Summary of the method: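 HUVEC co-cultured with HDF (1:3) 3 days in 10 ng/ml VEGF, then 3 days with compounds in VEGF medium. Fixed, nuclear stain and CD31 immunofluorescence, imaged; cell counts fitted versus 0.1% DMSO, loss of signal read as lower viability.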
# [8] = VALA_TUBIPS_Antagonist_TubuleLength: VALA Sciences human iPS-derived Endothelial Tubule Formation (TUBIPS) Antagonist Assay (AID 2284313)
# Summary of the method: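 Cells grown 3 days with 10 ng/ml VEGF, then exposed to compounds in VEGF medium for another 3 days. After fixation, nuclear stain and CD31 immunofluorescence imaging gave mean total tubule length against 0.1% DMSO; suramin (100 uM) inhibition control.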
# [9] = VALA_MIGHUV2_CellCount: Viability Assessment in the VALA Sciences human Umbilical Vein Endothelial Cell Migration (MIGHUV) Assay, Area of Scratch Wound after Recovery (AID 2284314)
# Summary of the method: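 Scratch-wounded HUVEC monolayers received test chemical within 30 min, 6-point concentration response in triplicate, 0.1 % DMSO vehicle. After 24 h wound recovery, fixed cells were Hoechst-stained and nuclei imaged; loss of signal versus DMSO indicates reduced viability.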
# [10] = VALA_MIGHUV2_Bcatenin: VALA Sciences human Umbilical Vein Endothelial Cell Migration (MIGHUV) Assay, Nuclear Translocation of beta-Catenin after Recovery (AID 2284315)
# Summary of the method: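 HUVEC (4000 cells/well) scratch-wounded, dosed within 30 min over 6 concentrations in triplicate, recovered 24 h. After fixation, Hoechst and anti-beta-catenin immunofluorescence imaged for nuclear CTNB. Gain of signal versus 0.1% DMSO.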
# [11] = VALA_MIGHUV2_WoundArea: VALA Sciences human Umbilical Vein Endothelial Cell Migration (MIGHUV) Assay, Area of Scratch Wound after Recovery (AID 2284316)
# Summary of the method: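 HUVEC seeded at 9000 cells/well, scratched after 24 h; test chemical added within 30 min, 6-point concentration response in triplicate (0.1% DMSO vehicle). After 24 h wound recovery, cells fixed and Hoechst-stained nuclei in wound area imaged; Cytochalasin D reference control.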
# [12] = VALA_TUBHUV_Antagonist_TubuleLength: VALA Sciences human Umbilical Vein Endothelial Tubule Formation (TUBHUV) Antagonism Assay (AID 2284325)
# Summary of the method: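 HUVEC–HDF co-culture (1:3) pre-grown 3 days with 10 ng/ml VEGF, then 3 days with compound plus VEGF. Fixed, nuclear and CD31 stained; total tubule length by imaging versus 0.1% DMSO; suramin 100 uM positive control.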
# [13] = VALA_MIGHUV1_ScratchOnly_CellCount: Viability Assessment in the VALA Sciences human Umbilical Vein Endothelial Cell Migration (MIGHUV) Assay, Scratch Wound Inhibited Recovery (AID 2284327)
# Summary of the method: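 HUVEC scratched after 24 h culture, chemical added within 30 min at 6 concentrations in triplicate (0.1% DMSO vehicle). After 24 h recovery, fixed cells were counted by Hoechst nuclear imaging in the wound area.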
# [14] = VALA_TUBHUV_Agonist_TubuleLength: VALA Sciences human Umbilical Vein Endothelial Tubule Formation (TUBHUV) Agonism Assay (AID 2284337)
# Summary of the method: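 HUVEC co-cultured with fibroblasts (1:3) 3 days in 10 ng/ml VEGF, then 3 days with compound plus VEGF; 0.1 % DMSO neutral control. Fixed, nuclear and CD31 stained; tubule length by fluorescence imaging.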
# AR (gene 367) = AR (gene 367) (UniProt P10275); test: ACEA_AR_antagonist_80hr: ACEA Biosciences xCELLigence Real-Time Cell Analysis on Androgen Receptor Antagonism for Proliferation (AID 2283787);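 note: 22Rv1 human prostate cancer cells with growth followed by electrical impedance; hits lower the impedance growth signal relative to DMSO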
# Summary of the method: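 22Rv1 cells in assay medium, growth tracked by electrical impedance; compounds eight-point 1:4 dilutions from 100 uM final, duplicate plates. Endpoint at 80 h; loss of signal versus DMSO.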
# [15] = target: human CYP2B6, CYP2B6 (gene 1555) (UniProt P20813); test: NVS_ADME_hCYP2B6: NovaScreen (NVS) CYP450-related Enzyme Activity (ADME) Assay for human CYP2B6 (AID 2283101)
# Summary of the method: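 Recombinant human CYP2B6 with fluorogenic substrate, read by fluorescence intensity 1 h after dosing. Primary screen in duplicate at 10 uM, actives followed in concentration series; signal loss relative to acetonitrile control.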
# [16] = target: human Adrenergic, Alpha 2A Receptor (Adra2A), ADRA2A (gene 150) (UniProt P08913); test: NVS_GPCR_hAdra2A: NovaScreen (NVS) G Protein-Coupled Receptor Assay for human Adrenergic, Alpha 2A Receptor (Adra2A) (AID 2283257)
# Summary of the method: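 Radioligand filter-binding was run on HT29-derived membranes, cell-free, read by scintillation counting 1 h after dosing. Primary screening was in duplicate at 25 uM, with concentration series in follow-up. Loss of signal versus DMSO indicates displacement.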
# [17] = tested on: frog Estrogen Receptor (ESR1), gene 398734; test: ATG_frER1_XSP1: Attagene TRANS-FACTORIAL Multi-Species (XSP1) HepG2 Assay for frog Estrogen Receptor (ESR1) (AID 2283777)
# Summary of the method: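 HepG2 cells transiently transfected with frog ER–GAL4 chimera and GAL4-UAS reporter, with 3 nM 6-alpha-fluorotestosterone present; 24 h dosing, reporter mRNA quantified by RT-PCR and capillary electrophoresis, gain of signal versus DMSO.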
# [18] = ATG_M_32_XSP1: Attagene TRANS-FACTORIAL Multi-Species (XSP1) HepG2 Assay for M32 Transcription Factor (Internal Marker) (AID 2283799)
# Summary of the method: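 HepG2 cells transiently transfected with multi-species TRANS reporter units, dosed 24 h with 3 nM 6-alpha-fluorotestosterone present. Internal-marker reporter mRNA quantified by RT-PCR and capillary electrophoresis; positive-direction fit versus DMSO.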
# [19] = tested on: turtle Thyroid Hormone Receptor, alpha (TRa), gene 101949057; test: ATG_trTRa_XSP1: Attagene TRANS-FACTORIAL Multi-Species (XSP1) HepG2 Assay for turtle Thyroid Hormone Receptor, alpha (TRa) (AID 2283806)
# Summary of the method: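 HepG2 cells transiently transfected with GAL4-UAS reporter units and chimeric receptor-Gal4 constructs, with 3 nM 6-alpha-fluorotestosterone present. Reporter mRNA was quantified 24 h after dosing by RT-PCR, 6-FAM labelling and capillary electrophoresis; gain of signal versus DMSO.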
compound,measurement,setting,value
Cc1cc(NC(=O)C(=O)O)cc(C)c1Oc1ccc(O)c2c1CCC2,AC50,[1],active: 8.94 µM
same,AC50,[2],active: 25 µM
same,outcome,[3],inactive
same,outcome,[4],inactive
same,outcome,[5],inactive
same,AC50,[6],inconclusive: 38.3 µM
same,AC50,[7],active: 81.2 µM
same,outcome,[8],inactive
same,AC50,[9],inconclusive: 0.00402 µM
same,AC50,[10],inconclusive: 50 µM
same,AC50,[11],inconclusive: 50 µM
same,AC50,[12],inconclusive: 0.0139 µM
same,AC50,[13],inconclusive: 0.00129 µM
same,AC50,[14],inconclusive: 50 µM
CCCOCC(C)O (stereo not given),AC50,AR (gene 367),inconclusive: 0.289 µM
Cc1oc(-c2ccccc2)nc1CCOc1ccc(C[C@H](Nc2ccccc2C(=O)c2ccccc2)C(=O)O)cc1,AC50,[15],inconclusive: 4.1 µM
same,AC50,[16],inconclusive: 25 µM
same,outcome,[17],inactive
same,outcome,[18],inactive
same,outcome,[19],inactive
Cc1cc(SC2=C(O)C[C@@](CCc3ccc(N)cc3)(C(C)C)OC2=O)c(C(C)(C)C)cc1CO,AC50,[16],inconclusive: 25 µM
CCCCCCCCCC(=O)O,outcome,[3],inactive
CCOC(=O)c1ccccc1C(=C1C=C(Br)C(=O)C(Br)=C1)c1cc(Br)c(O)c(Br)c1,AC50,[5],inconclusive: 7.85 µM
CC(C)(c1cc(Br)c(O)c(Br)c1)c1cc(Br)c(O)c(Br)c1,outcome,[17],inactive
same,outcome,[18],inactive
same,outcome,[19],inactive
COC(=O)[C@H]1[C@H]2C[C@@H]3c4[nH]c5cc(OC)ccc5c4CCN3C[C@H]2C[C@@H](OC(=O)c2cc(OC)c(OC)c(OC)c2)[C@@H]1OC,AC50,[7],inconclusive: 0.0017 µM
same,AC50,[8],inconclusive: 50 µM
same,outcome,[9],inactive
same,AC50,[10],inconclusive: 9.92 µM
same,outcome,[11],inactive
same,AC50,[12],active: 84.3 µM
same,outcome,[13],inactive
same,outcome,[14],inactive
O=C(OCCCCCOC(=O)c1ccccc1)c1ccccc1,AC50,[1],inconclusive: 25 µM
same,outcome,[2],inactive
BrCc1cccc(Oc2ccccc2)c1,outcome,AR (gene 367),inactive
C[C@H](CCC(=O)NCC(=O)O)[C@H]1CC[C@H]2[C@@H]3[C@H](O)C[C@@H]4C[C@H](O)CC[C@]4(C)[C@H]3C[C@H](O)[C@]12C,AC50,[6],inconclusive: 0.000248 µM
Cc1cc(S(=O)(=O)O)ccc1N=Nc1c(O)ccc2ccccc12,AC50,[4],active: 24 µM
CC1=CC(=O)CC(C)(C)C1,AC50,[15],inconclusive: 10 µM

# As a short view, part of the list above.
compound,measurement,setting,value
O=C(OCCCCCOC(=O)c1ccccc1)c1ccccc1,AC50,[1],inconclusive: 25 µM
same,outcome,[2],inactive
BrCc1cccc(Oc2ccccc2)c1,outcome,AR (gene 367),inactive
